Reference: PubChem BioAssay AID540256 (National Center for Advancing Translational Sciences (NCATS), 2011)
Out of some 300,000 compounds screened, about 3,700 (1.2%) were called active. This list was built around the results that the source calls inconclusive (neither active nor inactive); the mix of calls is not that of the screen. Calls come from the whole dose curve; tested in HEK293 cells. Where the call is inconclusive, the potency comes from a doubtful curve fit.

assay: qHTS for Inhibitors of binding or entry into cells for Lassa Virus; conditions: Lassa virus pseudotype entry inhibition, cell reporter; activity change, negative = inhibition: at 37.9 µM (top of the series) unless noted; note: nearly all actives have a fitted effect of over 50% in size
% is set by controls: 0 for no effect and ±100 for the full control effect; potency is the fitted concentration of half-maximal effect.

SMILES	Potency	activity change, negative = inhibition
O=C(NCC1CCCN(C(=O)c2cscn2)C1)c1ccccc1Cl (stereo not drawn)	inactive	
CC(=O)Nc1ccc(SCC(=O)Nc2ccccc2N2CCOCC2)cc1	inactive	
COc1ccc(NS(=O)(=O)c2ccc3nc(-c4ccccc4)[nH]c3c2)cc1	inconclusive: 35.5 µM [inhibitor, single point]	
Cc1nnc(NC(=O)CSc2ncn(-c3ccccc3)n2)s1	inactive	
CCOC(=O)c1c(-c2ccccc2)csc1NC(=O)CSc1ccccc1	inconclusive: 16.4 µM [inhibitor, single point]	
COc1cccc(/C=N/NC(=O)c2ccc(N3CCCC3=O)cc2)c1	inconclusive: 1.58 µM [inhibitor, partial curve, poor fit]	
COc1ccc(CN(CC2CCCO2)C(=O)c2cc3sccc3n2C)c(OC)c1 (stereo not drawn)	inconclusive: 0.562 µM [inhibitor, full curve, poor fit]	
Cc1cccc(Cc2c(C)nc3c(-c4ccccc4)c(C)[nH]n3c2=O)c1	inconclusive: 3.16 µM [inhibitor, single point]	
Cn1c(SCC(=O)N2CCN(S(=O)(=O)c3ccc(Cl)cc3)CC2)nc2ccccc21	inconclusive: 18.3 µM [inhibitor, single point]	
O=C(Cn1ncc2c3ccccc3n(Cc3ccc(F)cc3)c2c1=O)NCc1cccs1	inconclusive: 14.1 µM [activator, single point]	
NC(=O)c1ccc(NC(=O)COC(=O)c2cc([N+](=O)[O-])ccc2N2CCOCC2)cc1	inactive	
Fc1ccc(C2=CC(c3ccc(F)cc3)n3c(nc4ccccc43)N2)cc1 (stereo not drawn)	inconclusive: 5.62 µM [activator, full curve]	
CCOc1ccccc1NC(=O)CSc1nc(=O)n(CCCN2CCOCC2)c2c1CCC2	inconclusive: 1.26 µM [activator, single point]	
CC(CNC(=O)c1ccc2nc(Cc3ccccc3)oc2c1)c1ccccc1 (stereo not drawn)	inconclusive: 7.94 µM [inhibitor, partial curve, poor fit]	
CCOC(=O)C1=C(C)Nc2nc(SCC)nn2C1c1ccc(OC)cc1 (stereo not drawn)	inactive	
NC(=O)C1CCN(C(=O)c2cccc(S(=O)(=O)N3CCCC3)c2)CC1	inactive	
COc1ccc(S(=O)(=O)NCCSc2nnnn2-c2ccccc2)cc1	inconclusive: 0.891 µM [inhibitor, full curve, poor fit]	
Cc1ccc(S(=O)(=O)N2CCOCC2)cc1C(=O)NCCN1C(=O)S/C(=C\c2ccccc2Cl)C1=O	inconclusive: 0.651 µM [inhibitor, full curve, poor fit]	
Clc1ccccc1Nc1nnc(-c2ccncc2)s1	active: 5.01 µM	
O=C(C1CCCO1)N1N=C(c2ccc(Br)cc2)CC1c1ccco1 (stereo not drawn)	inconclusive: 12.6 µM [inhibitor, partial curve, poor fit]	
Cc1ccccc1C(=O)N1CCC(C(=O)Nc2ccc(S(=O)(=O)N3CCCCC3)cc2)CC1	inconclusive: 15.8 µM [inhibitor, partial curve, poor fit]	

SMILES	Potency	activity change, negative = inhibition
Cc1cccc(OCC(=O)Nc2cccc(-c3nnc(-c4ccccc4)o3)c2)c1C	inconclusive: 32.6 µM [inhibitor, single point]	
O=C(c1ccc2ccccc2c1)N1CCN(c2ccc([N+](=O)[O-])c(N3CCOCC3)c2)CC1	inconclusive: 0.103 µM [inhibitor, full curve, poor fit]	
C=CCN(CC=C)CCOc1ccc(OC(C)C)cc1	inactive	
O=C(Nc1ccc(S(=O)(=O)NC2CCCC2)cc1)c1cnccn1	inconclusive: 0.0231 µM [inhibitor, full curve, poor fit]	
N=C1/C(=C/c2coc3ccccc3c2=O)C(=O)N=C2SC(c3ccco3)=NN12	inconclusive: 10 µM [activator, partial curve, poor fit]	
COc1cc(NC(=O)c2cc([N+](=O)[O-])ccc2NC(=O)CN2CCN(c3ccccn3)CC2)cc(OC)c1	inconclusive: 35.5 µM [inhibitor, single point]	
COc1ccc(C(=O)NCC(c2ccc3c(c2)OCO3)N2CCN(c3ccccc3F)CC2)cc1 (stereo not drawn)	inconclusive: 11.2 µM [inhibitor, partial curve, poor fit]	
CCOC(=O)CNC(=O)CSc1ncnc2c1cnn2-c1ccc(C)cc1	inconclusive: 3.55 µM [inhibitor, full curve]	
CC1(C)Cc2nc(N)c(C(=O)NCCO)cc2CO1	inconclusive: 29.1 µM [activator, single point]	
CN(CC(=O)Nc1ccccc1Br)C(=O)c1ccccc1-c1nc2ccccc2s1	inconclusive: 5.62 µM [inhibitor, partial curve]	
CCOCCCNC(=O)c1cc(Sc2ccc(C)cc2)nc2ccccc12	inconclusive: 1.26 µM [inhibitor, partial curve, poor fit]	
O=C(Nc1ccc(C(=O)N2CCOCC2)cc1)c1cccc(Br)c1	inconclusive: 0.631 µM [activator, single point]	
Cc1ccc(S(=O)(=O)c2cn(Cc3ccc(F)cc3)c3cc4c(cc3c2=O)OCO4)cc1		inconclusive: 4.99% [activator]
Clc1ccc(CSc2ncnc3c2ncn3C2CCCCO2)cc1 (stereo not drawn)	inactive	
CCOC(=O)c1cccc(NC(=O)c2cc(C)nn2-c2ccccc2)c1	inconclusive: 11.2 µM [inhibitor, partial curve, poor fit]	
CCOC(=O)/C=C/C(=O)Nc1ccccc1-c1ccccc1NC(=O)/C=C/C(=O)OCC	active: 12.6 µM	
COc1ccc(C)cc1S(=O)(=O)N(CC(=O)NCc1ccco1)c1ccc(C)cc1	inconclusive: 35.5 µM [inhibitor, single point]	
CCCCCn1c(=O)c(C(=O)NCc2ccccn2)c(O)c2ccccc21	inconclusive: 22.4 µM [inhibitor, single point]	
Clc1ccc(-c2cn3cc(Br)ccc3n2)cc1Cl	inconclusive: 8.91 µM [inhibitor, partial curve, poor fit]	
CC(C(=O)NC(=O)NC1CCCCC1)N1CCN(c2ccc(O)cc2)CC1 (stereo not drawn)	inactive	
O=C(Nc1ccc(Cl)cn1)c1ccc2c(c1)OCCO2	inconclusive: 3.16 µM [inhibitor, partial curve, poor fit]	

SMILES	Potency	activity change, negative = inhibition
Cc1ccc(C)c2[nH]c(=O)c(C(c3nnnn3Cc3ccco3)N3CCc4ccccc4C3)cc12 (stereo not drawn)	inconclusive: 17.8 µM [inhibitor, partial curve, poor fit]	
CCOc1ccc(-c2nnc(SCC(=O)Nc3cccc(OC)c3)nc2-c2ccc(OCC)cc2)cc1	inconclusive: 31.6 µM [activator, single point]	
CCOc1ccc(C(=O)Nc2ccccc2N2CCN(C(=O)c3ccccc3)CC2)cc1[N+](=O)[O-]	inconclusive: 2.24 µM [inhibitor, partial curve]	
COc1cc(/C=N/NC(=O)c2cccc(NC(=O)c3ccccc3C)c2)ccc1O	inactive	
O=C1CCCc2cc(S(=O)(=O)N3CCCC(C(=O)NCc4ccc(Cl)cc4)C3)ccc2N1 (stereo not drawn)	inconclusive: 35.5 µM [inhibitor, single point]	
NC(=O)CN1CCOCCN(CC(N)=O)CCOCC1	inactive	
O=C(CNC(=O)c1cccs1)c1ccc(Br)cc1	inconclusive: 10 µM [inhibitor, partial curve, poor fit]	
CC/C(C)=N/Nc1ccc(S(=O)(=O)N2CCCC2)cc1[N+](=O)[O-]	inconclusive: 1.26 µM [activator, single point]	
CCOC(=O)c1sc(NC(=O)C(CC)Sc2nc3ccccc3[nH]2)nc1C (stereo not drawn)	inconclusive: 6.31 µM [inhibitor, partial curve]	
O=C(Nc1nc(-c2ccccn2)cs1)c1ccc([N+](=O)[O-])o1	inconclusive: 10 µM [inhibitor, partial curve, poor fit]	
CC(C)(C)OC(=O)N/N=C/c1ccc(N2CCOCC2)s1	active: 1.84 µM	
O=C(c1cccc(NS(=O)(=O)c2ccc(F)c(F)c2)c1)N1CCCCC1	inconclusive: 0.891 µM [inhibitor, single point]	
COc1ccccc1N(CC(=O)Nc1ccc(Br)cc1F)S(=O)(=O)c1cccs1	inconclusive: 15.8 µM [inhibitor, single point]	
CCn1nc(C(=O)Nc2ccc(C)c(C)c2)c(Cl)c1Cl	inconclusive: 3.66 µM [activator, single point]	
CCN(CC)CCCN=Cc1c(O)n(Cc2ccccc2)c(=O)c2ccccc12	inconclusive: 35.5 µM [activator, partial curve, poor fit]	
CCOC(=O)Cn1cc(C=C2C(=O)N(C)C(=O)N(C)C2=O)c2ccccc21	inactive	
O=C(O)c1cccc(-n2c(/C=C/c3cccc([N+](=O)[O-])c3)nc3ccccc3c2=O)c1	inactive	
O=C(CCc1nc2ccccc2c(=O)[nH]1)NCc1cccc(Cl)c1	inconclusive: 31.6 µM [inhibitor, partial curve, poor fit]	
Cc1ccc(S(=O)(=O)N(C)C)cc1NC(=O)CSc1nc2ccccc2c(=O)n1CC1CCCO1 (stereo not drawn)	inconclusive: 7.94 µM [inhibitor, partial curve, poor fit]	
COC(=O)C1CCN(C(=O)COC(=O)CSc2ccc(C(N)=O)cc2[N+](=O)[O-])CC1	inactive	
Cc1c(O)nc(SCC(=O)Nc2nccs2)n(-c2ccccc2F)c1=O	inconclusive: 5.01 µM [activator, partial curve, poor fit]	

A section from the list above, for reference:
SMILES	Potency	activity change, negative = inhibition
O=C(O)c1cccc(-n2c(/C=C/c3cccc([N+](=O)[O-])c3)nc3ccccc3c2=O)c1	inactive	
O=C(CCc1nc2ccccc2c(=O)[nH]1)NCc1cccc(Cl)c1	inconclusive: 31.6 µM [inhibitor, partial curve, poor fit]	
Cc1ccc(S(=O)(=O)N(C)C)cc1NC(=O)CSc1nc2ccccc2c(=O)n1CC1CCCO1 (stereo not drawn)	inconclusive: 7.94 µM [inhibitor, partial curve, poor fit]	
COC(=O)C1CCN(C(=O)COC(=O)CSc2ccc(C(N)=O)cc2[N+](=O)[O-])CC1	inactive	
Cc1c(O)nc(SCC(=O)Nc2nccs2)n(-c2ccccc2F)c1=O	inconclusive: 5.01 µM [activator, partial curve, poor fit]	
